This is an account of results in publication doi:10.1101/2025.10.21.683757.

By UniProt entry, the sequences of proteins in these tests, tags left out.
UniProt Q96N16: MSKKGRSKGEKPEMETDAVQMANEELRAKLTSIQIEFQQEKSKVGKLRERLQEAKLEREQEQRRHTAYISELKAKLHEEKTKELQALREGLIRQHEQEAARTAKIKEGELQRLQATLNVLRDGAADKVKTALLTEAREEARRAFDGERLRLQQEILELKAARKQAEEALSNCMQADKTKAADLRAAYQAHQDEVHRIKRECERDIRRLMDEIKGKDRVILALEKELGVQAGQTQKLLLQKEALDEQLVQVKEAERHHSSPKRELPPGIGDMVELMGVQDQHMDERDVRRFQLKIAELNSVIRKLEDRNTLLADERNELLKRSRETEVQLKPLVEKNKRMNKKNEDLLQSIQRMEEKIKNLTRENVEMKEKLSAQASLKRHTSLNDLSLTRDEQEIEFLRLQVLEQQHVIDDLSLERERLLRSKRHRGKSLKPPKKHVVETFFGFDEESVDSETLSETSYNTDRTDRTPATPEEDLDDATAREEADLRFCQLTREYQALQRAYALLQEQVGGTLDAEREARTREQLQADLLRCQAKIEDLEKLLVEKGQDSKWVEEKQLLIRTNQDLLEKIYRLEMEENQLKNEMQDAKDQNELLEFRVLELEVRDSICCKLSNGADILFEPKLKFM
UniProt Q7L576: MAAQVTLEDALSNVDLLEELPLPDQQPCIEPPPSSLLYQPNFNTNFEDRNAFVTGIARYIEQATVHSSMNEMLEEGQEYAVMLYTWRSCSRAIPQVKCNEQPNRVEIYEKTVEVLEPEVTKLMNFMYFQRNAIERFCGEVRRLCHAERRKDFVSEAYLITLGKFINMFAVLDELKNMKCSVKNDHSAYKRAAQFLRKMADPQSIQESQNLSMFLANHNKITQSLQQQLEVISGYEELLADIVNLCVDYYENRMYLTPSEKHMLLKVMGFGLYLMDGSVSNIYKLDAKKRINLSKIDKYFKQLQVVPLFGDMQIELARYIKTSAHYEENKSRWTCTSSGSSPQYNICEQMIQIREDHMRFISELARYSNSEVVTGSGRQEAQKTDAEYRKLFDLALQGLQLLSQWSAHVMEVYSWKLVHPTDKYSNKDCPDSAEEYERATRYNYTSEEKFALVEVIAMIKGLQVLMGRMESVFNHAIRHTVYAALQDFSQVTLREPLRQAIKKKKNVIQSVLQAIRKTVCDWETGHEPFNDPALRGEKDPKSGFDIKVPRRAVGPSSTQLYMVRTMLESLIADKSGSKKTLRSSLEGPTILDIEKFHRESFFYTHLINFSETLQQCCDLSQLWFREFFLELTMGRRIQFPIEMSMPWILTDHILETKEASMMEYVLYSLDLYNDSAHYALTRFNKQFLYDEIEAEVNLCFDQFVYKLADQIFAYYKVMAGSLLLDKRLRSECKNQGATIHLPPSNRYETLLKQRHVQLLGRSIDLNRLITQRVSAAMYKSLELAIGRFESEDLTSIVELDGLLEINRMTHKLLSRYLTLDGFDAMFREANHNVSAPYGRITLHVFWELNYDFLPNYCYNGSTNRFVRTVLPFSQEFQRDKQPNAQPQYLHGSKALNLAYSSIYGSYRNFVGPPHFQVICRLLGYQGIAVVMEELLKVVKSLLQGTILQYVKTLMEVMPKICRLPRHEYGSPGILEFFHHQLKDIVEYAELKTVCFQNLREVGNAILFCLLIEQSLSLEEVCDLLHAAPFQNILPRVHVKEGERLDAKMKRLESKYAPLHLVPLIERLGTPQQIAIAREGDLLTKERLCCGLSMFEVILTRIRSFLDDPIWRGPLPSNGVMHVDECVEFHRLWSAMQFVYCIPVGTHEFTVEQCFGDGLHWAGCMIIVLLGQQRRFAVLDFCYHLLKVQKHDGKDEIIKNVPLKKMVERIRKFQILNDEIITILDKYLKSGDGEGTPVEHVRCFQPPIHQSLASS

Results are given in words; binding and its absence hold for the method and conditions named. Binding seen in cells or lysates may run through a third protein. A yes stands for co-enrichment or nearness to the bait. Other partners may have been found.

The test concerns the target full-length JAKMIP1-mCherry fusion protein (expressed in SH-SY5Y cells) (UniProt Q96N16). Description: affinity purification with mass spectrometry.

Turning to “Cytoplasmic FMRP-Interacting Protein 1 (from UniProt Q7L576 1-1253)”, the binding result is “binds”.
